Experimental data from US20250074980A1 (BRIGHAM AND WOMEN S HOSPITAL, published 2025).
Results are given in words; binding and its absence hold for the method and conditions named. Some results given as binding are weak or reduced against the parent protein; the word gives no strength.

T1: CEACAM1 on transfected HeLa cells (human, UniProt P13688 35-526)
T1 construct: also called HeLa-CEACAM1; HeLa C1
T1 sequence: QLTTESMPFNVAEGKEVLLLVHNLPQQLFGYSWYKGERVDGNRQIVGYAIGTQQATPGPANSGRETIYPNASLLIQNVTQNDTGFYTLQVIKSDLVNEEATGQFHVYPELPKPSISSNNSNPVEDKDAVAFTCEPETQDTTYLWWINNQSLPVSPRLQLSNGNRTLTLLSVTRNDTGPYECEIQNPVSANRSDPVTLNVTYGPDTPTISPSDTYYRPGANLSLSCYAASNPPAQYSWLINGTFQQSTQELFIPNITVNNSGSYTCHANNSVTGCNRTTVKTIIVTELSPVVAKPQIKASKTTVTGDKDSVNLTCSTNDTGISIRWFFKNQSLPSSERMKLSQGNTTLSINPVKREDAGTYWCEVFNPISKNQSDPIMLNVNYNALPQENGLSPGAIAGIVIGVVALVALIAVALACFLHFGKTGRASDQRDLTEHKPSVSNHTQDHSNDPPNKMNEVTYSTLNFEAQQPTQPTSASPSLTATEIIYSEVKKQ


Molecular target: T1, CEACAM1 on transfected HeLa cells
Experiment: flow cytometry, HeLa-CEACAM1 transfectants, % positive cells

Binder | binding
VH1/Vκ1 (antibody, IgG4, V domains shown, IgG4 (S241P), kappa) VH: EVQLLESGGGLVQPGGSLRLSCAASGFIFSSHGMSWVRQAPGKGLEWVATISSGGTYTYYPDSVKGRFTISRDNSKNTLYLQMNSLKAEDTAMYYCARHDFDYDAAWFAYWGQGTLVTVSS VL: QIVLTQSPALLSLSPGERATMSCSANSSVSYMYWYRQKPGQAPKPWIYLTSNLASGVPARFSGSGSGTDYTLTISSLEAEDFATYYCQQWSSNPPTFGQGTKLEIK | binds
VH2/Vκ2 (antibody, IgG4, V domains shown, IgG4 (S241P), kappa) VH: EVQLLESGGGLVQPGGSLRLSCAASGFIFSSHGMSWVRQAPGKGLEWVATISSGGTYTYYPDSVKGRFTISRDNSKNTLYLQMNSLRAEDTAMYYCARHDFDYDAAWFAYWGQGTLVTVSS VL: EIVLTQSPATLSLSPGERATLSCRANSSVSYMYWYQQKPGQAPRPWIYLTSNRATGVPARFSGSGSGTDYTLTISSLEPEDFATYYCQQWSSNPPTFGQGTKLEIK | binds
VH2/Vκ10 (antibody, IgG4, V domains shown, IgG4 (S241P), kappa) VH: EVQLLESGGGLVQPGGSLRLSCAASGFIFSSHGMSWVRQAPGKGLEWVATISSGGTYTYYPDSVKGRFTISRDNSKNTLYLQMNSLRAEDTAMYYCARHDFDYDAAWFAYWGQGTLVTVSS VL: EIVLTQSPATLSLSPGERATLSCRANSSVSYMYWYQQKPGQAPRPWIYLTSNRATGIPARFSGSGSGTDFTLTISSLEPEDFATYYCQQWSSNPPTFGQGTKLEIK | binds
VH1/Vκ10 (antibody, IgG4, V domains shown, IgG4 (S241P), kappa) VH: EVQLLESGGGLVQPGGSLRLSCAASGFIFSSHGMSWVRQAPGKGLEWVATISSGGTYTYYPDSVKGRFTISRDNSKNTLYLQMNSLKAEDTAMYYCARHDFDYDAAWFAYWGQGTLVTVSS VL: EIVLTQSPATLSLSPGERATLSCRANSSVSYMYWYQQKPGQAPRPWIYLTSNRATGIPARFSGSGSGTDFTLTISSLEPEDFATYYCQQWSSNPPTFGQGTKLEIK | binds
VH4/Vκ4 (antibody, IgG4, V domains shown, IgG4 (S241P), kappa) VH: EVQLLESGGGLVQPGGSLRLSCAASGFIFSSHGMSWVRQAPGKGLEWVSTISSGGTYTYYADSVKGRFTISRDNSKNTLYLQMNSLRAEDTAVYYCARHDFDYDAAWFAYWGQGTLVTVSS VL: EIVLTQSPATLSLSPGERATLSCRANSSVSYMYWYQQKPGQAPRPWIYLTSNRATGIPARFSGSGSGTDYTLTISSLEPEDFATYYCQQWSSNPPTFGQGTKLEIK | binds
VH2/Vκ11 (antibody, IgG4, V domains shown, IgG4 (S241P), kappa) VH: EVQLLESGGGLVQPGGSLRLSCAASGFIFSSHGMSWVRQAPGKGLEWVATISSGGTYTYYPDSVKGRFTISRDNSKNTLYLQMNSLRAEDTAMYYCARHDFDYDAAWFAYWGQGTLVTVSS VL: EIVLTQSPATLSLSPGERATLSCRANSSVSYMYWYQQKPGQAPRPWIYLTSNRATGIPARFSGSGSGTDYTLTISSLEPEDFAVYYCQQWSSNPPTFGQGTKLEIK | binds
VH3/Vκ2 (antibody, IgG4, V domains shown, IgG4 (S241P), kappa) VH: EVQLLESGGGLVQPGGSLRLSCAASGFIFSSHGMSWVRQAPGKGLEWVATISSGGTYTYYADSVKGRFTISRDNSKNTLYLQMNSLRAEDTAMYYCARHDFDYDAAWFAYWGQGTLVTVSS VL: EIVLTQSPATLSLSPGERATLSCRANSSVSYMYWYQQKPGQAPRPWIYLTSNRATGVPARFSGSGSGTDYTLTISSLEPEDFATYYCQQWSSNPPTFGQGTKLEIK | binds
VH2/Vκ8 (antibody, IgG4, V domains shown, IgG4 (S241P), kappa) VH: EVQLLESGGGLVQPGGSLRLSCAASGFIFSSHGMSWVRQAPGKGLEWVATISSGGTYTYYPDSVKGRFTISRDNSKNTLYLQMNSLRAEDTAMYYCARHDFDYDAAWFAYWGQGTLVTVSS VL: EIVLTQSPATLSLSPGERATLSCRANSSVSYMYWYQQKPGQAPRPWIYLTSNRATGVPARFSGSGSGTDYTLTISSLEPEDFAVYYCQQWSSNPPTFGQGTKLEIK | binds
VH1/Vκ4 (antibody, IgG4, V domains shown, IgG4 (S241P), kappa) VH: EVQLLESGGGLVQPGGSLRLSCAASGFIFSSHGMSWVRQAPGKGLEWVATISSGGTYTYYPDSVKGRFTISRDNSKNTLYLQMNSLKAEDTAMYYCARHDFDYDAAWFAYWGQGTLVTVSS VL: EIVLTQSPATLSLSPGERATLSCRANSSVSYMYWYQQKPGQAPRPWIYLTSNRATGIPARFSGSGSGTDYTLTISSLEPEDFATYYCQQWSSNPPTFGQGTKLEIK | binds
VH2/Vκ7 (antibody, IgG4, V domains shown, IgG4 (S241P), kappa) VH: EVQLLESGGGLVQPGGSLRLSCAASGFIFSSHGMSWVRQAPGKGLEWVATISSGGTYTYYPDSVKGRFTISRDNSKNTLYLQMNSLRAEDTAMYYCARHDFDYDAAWFAYWGQGTLVTVSS VL: EIVLTQSPATLSLSPGERATLSCRANSSVSYMYWYQQKPGQAPRPWIYLTSNRATGVPARFSGSGSGTDFTLTISSLEPEDFATYYCQQWSSNPPTFGQGTKLEIK | binds
VH2/Vκ1 (antibody, IgG4, V domains shown, IgG4 (S241P), kappa) VH: EVQLLESGGGLVQPGGSLRLSCAASGFIFSSHGMSWVRQAPGKGLEWVATISSGGTYTYYPDSVKGRFTISRDNSKNTLYLQMNSLRAEDTAMYYCARHDFDYDAAWFAYWGQGTLVTVSS VL: QIVLTQSPALLSLSPGERATMSCSANSSVSYMYWYRQKPGQAPKPWIYLTSNLASGVPARFSGSGSGTDYTLTISSLEAEDFATYYCQQWSSNPPTFGQGTKLEIK | binds

The remaining lines, values ahead:

binding | Binder
binds | VH1/Vκ11 (antibody, IgG4, V domains shown, IgG4 (S241P), kappa) VH: EVQLLESGGGLVQPGGSLRLSCAASGFIFSSHGMSWVRQAPGKGLEWVATISSGGTYTYYPDSVKGRFTISRDNSKNTLYLQMNSLKAEDTAMYYCARHDFDYDAAWFAYWGQGTLVTVSS VL: EIVLTQSPATLSLSPGERATLSCRANSSVSYMYWYQQKPGQAPRPWIYLTSNRATGIPARFSGSGSGTDYTLTISSLEPEDFAVYYCQQWSSNPPTFGQGTKLEIK
binds | VH3/Vκ4 (antibody, IgG4, V domains shown, IgG4 (S241P), kappa) VH: EVQLLESGGGLVQPGGSLRLSCAASGFIFSSHGMSWVRQAPGKGLEWVATISSGGTYTYYADSVKGRFTISRDNSKNTLYLQMNSLRAEDTAMYYCARHDFDYDAAWFAYWGQGTLVTVSS VL: EIVLTQSPATLSLSPGERATLSCRANSSVSYMYWYQQKPGQAPRPWIYLTSNRATGIPARFSGSGSGTDYTLTISSLEPEDFATYYCQQWSSNPPTFGQGTKLEIK
binds | VH1/Vκ9 (antibody, IgG4, V domains shown, IgG4 (S241P), kappa) VH: EVQLLESGGGLVQPGGSLRLSCAASGFIFSSHGMSWVRQAPGKGLEWVATISSGGTYTYYPDSVKGRFTISRDNSKNTLYLQMNSLKAEDTAMYYCARHDFDYDAAWFAYWGQGTLVTVSS VL: EIVLTQSPATLSLSPGERATLSCRANSSVSYMYWYQQKPGQAPRPLIYLTSNRATGVPARFSGSGSGTDYTLTISSLEPEDFATYYCQQWSSNPPTFGQGTKLEIK
binds | VH2/Vκ12 (antibody, IgG4, V domains shown, IgG4 (S241P), kappa) VH: EVQLLESGGGLVQPGGSLRLSCAASGFIFSSHGMSWVRQAPGKGLEWVATISSGGTYTYYPDSVKGRFTISRDNSKNTLYLQMNSLRAEDTAMYYCARHDFDYDAAWFAYWGQGTLVTVSS VL: EIVLTQSPATLSLSPGERATLSCRANSSVSYMYWYQQKPGQAPRPLIYLTSNRATGIPARFSGSGSGTDYTLTISSLEPEDFATYYCQQWSSNPPTFGQGTKLEIK
binds | VH4/Vκ2 (antibody, IgG4, V domains shown, IgG4 (S241P), kappa) VH: EVQLLESGGGLVQPGGSLRLSCAASGFIFSSHGMSWVRQAPGKGLEWVSTISSGGTYTYYADSVKGRFTISRDNSKNTLYLQMNSLRAEDTAVYYCARHDFDYDAAWFAYWGQGTLVTVSS VL: EIVLTQSPATLSLSPGERATLSCRANSSVSYMYWYQQKPGQAPRPWIYLTSNRATGVPARFSGSGSGTDYTLTISSLEPEDFATYYCQQWSSNPPTFGQGTKLEIK
binds | VH2/Vκ9 (antibody, IgG4, V domains shown, IgG4 (S241P), kappa) VH: EVQLLESGGGLVQPGGSLRLSCAASGFIFSSHGMSWVRQAPGKGLEWVATISSGGTYTYYPDSVKGRFTISRDNSKNTLYLQMNSLRAEDTAMYYCARHDFDYDAAWFAYWGQGTLVTVSS VL: EIVLTQSPATLSLSPGERATLSCRANSSVSYMYWYQQKPGQAPRPLIYLTSNRATGVPARFSGSGSGTDYTLTISSLEPEDFATYYCQQWSSNPPTFGQGTKLEIK
binds | VH1/Vκ7 (antibody, IgG4, V domains shown, IgG4 (S241P), kappa) VH: EVQLLESGGGLVQPGGSLRLSCAASGFIFSSHGMSWVRQAPGKGLEWVATISSGGTYTYYPDSVKGRFTISRDNSKNTLYLQMNSLKAEDTAMYYCARHDFDYDAAWFAYWGQGTLVTVSS VL: EIVLTQSPATLSLSPGERATLSCRANSSVSYMYWYQQKPGQAPRPWIYLTSNRATGVPARFSGSGSGTDFTLTISSLEPEDFATYYCQQWSSNPPTFGQGTKLEIK
binds | VH1/Vκ12 (antibody, IgG4, V domains shown, IgG4 (S241P), kappa) VH: EVQLLESGGGLVQPGGSLRLSCAASGFIFSSHGMSWVRQAPGKGLEWVATISSGGTYTYYPDSVKGRFTISRDNSKNTLYLQMNSLKAEDTAMYYCARHDFDYDAAWFAYWGQGTLVTVSS VL: EIVLTQSPATLSLSPGERATLSCRANSSVSYMYWYQQKPGQAPRPLIYLTSNRATGIPARFSGSGSGTDYTLTISSLEPEDFATYYCQQWSSNPPTFGQGTKLEIK
binds | VH1/Vκ2 (antibody, IgG4, V domains shown, IgG4 (S241P), kappa) VH: EVQLLESGGGLVQPGGSLRLSCAASGFIFSSHGMSWVRQAPGKGLEWVATISSGGTYTYYPDSVKGRFTISRDNSKNTLYLQMNSLKAEDTAMYYCARHDFDYDAAWFAYWGQGTLVTVSS VL: EIVLTQSPATLSLSPGERATLSCRANSSVSYMYWYQQKPGQAPRPWIYLTSNRATGVPARFSGSGSGTDYTLTISSLEPEDFATYYCQQWSSNPPTFGQGTKLEIK
